{"source": "paper PMC9780221", "binders": {"B1": {"name": "NBC (Naa20, catalytic subunit of Arabidopsis NatB), pGADT7 fusion (protein, UniProt Q8LGI8 1-174)", "chain": "MTTIRRFSCNDLLRFTSVNLDHLTETFNMSFYMTYLARWPDYFHVAEGPGNRVMGYIMGKVEGQGESWHGHVTAVTVSPEYRRQQLAKKLMNLLEDISDKIDKAYFVDLFVRASNTPAIKMYEKLGYIIYRRVLRYYSGEEDGLDMRKALSRDVEKKSVIPLKRPITPDELEYD"}, "B2": {"name": "HA-tagged NBC expressed in N. benthamiana leaves (protein, UniProt Q8LGI8 1-174)", "chain": "B1 chain"}}, "key": {"[1]": {"target": "T1, CKRC3/TCU2 (Naa25, auxiliary subunit of Arabidopsis NatB), pGBKT7 fusion (Arabidopsis thaliana) (UniProt F4KEY9)", "T1 sequence": "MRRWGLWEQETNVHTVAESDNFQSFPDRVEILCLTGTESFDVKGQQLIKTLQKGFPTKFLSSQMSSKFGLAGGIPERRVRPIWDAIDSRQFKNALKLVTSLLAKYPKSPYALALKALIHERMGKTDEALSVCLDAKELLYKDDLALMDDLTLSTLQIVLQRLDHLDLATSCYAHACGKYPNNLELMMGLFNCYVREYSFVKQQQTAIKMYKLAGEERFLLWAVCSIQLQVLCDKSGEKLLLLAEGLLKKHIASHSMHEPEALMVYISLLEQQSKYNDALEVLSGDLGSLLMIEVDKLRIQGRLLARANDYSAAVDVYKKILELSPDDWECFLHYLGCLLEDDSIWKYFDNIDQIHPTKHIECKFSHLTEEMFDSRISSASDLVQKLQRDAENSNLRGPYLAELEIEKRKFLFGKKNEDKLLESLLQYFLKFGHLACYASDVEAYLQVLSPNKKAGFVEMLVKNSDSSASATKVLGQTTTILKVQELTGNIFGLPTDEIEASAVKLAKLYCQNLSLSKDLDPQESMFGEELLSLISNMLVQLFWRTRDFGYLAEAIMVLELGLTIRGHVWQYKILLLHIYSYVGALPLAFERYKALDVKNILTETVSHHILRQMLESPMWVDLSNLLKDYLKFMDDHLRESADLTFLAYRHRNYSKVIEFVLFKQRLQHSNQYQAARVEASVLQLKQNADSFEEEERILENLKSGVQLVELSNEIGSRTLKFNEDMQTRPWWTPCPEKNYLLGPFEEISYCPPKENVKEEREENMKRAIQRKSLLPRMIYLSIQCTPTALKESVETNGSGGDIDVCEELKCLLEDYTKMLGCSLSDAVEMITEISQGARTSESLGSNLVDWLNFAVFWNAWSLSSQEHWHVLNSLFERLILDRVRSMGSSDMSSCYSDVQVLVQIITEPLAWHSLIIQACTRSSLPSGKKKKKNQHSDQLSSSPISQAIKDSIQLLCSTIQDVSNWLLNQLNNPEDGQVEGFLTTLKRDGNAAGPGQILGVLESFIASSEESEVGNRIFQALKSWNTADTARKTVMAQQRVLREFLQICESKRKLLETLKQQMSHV", "experiment": "two-hybrid; pGBKT7-CKRC3/TCU2 with pGADT7-NBC in yeast; growth on SD/-Leu/-Trp/-His/-Ade with or without X-alpha-Gal and AbA, 30 °C"}, "[2]": {"target": "T2, Myc-tagged CKRC3/TCU2 expressed in N. benthamiana leaves (Arabidopsis thaliana) (UniProt F4KEY9)", "T2 sequence": "T1 sequence", "experiment": "co-IP; Myc-tagged CKRC3/TCU2 and HA-tagged NBC transiently co-expressed in N. benthamiana leaves; anti-Myc or anti-HA antibody with protein G-Sepharose; IP buffer 50 mM Tris pH 7.5, 150 mM NaCl, 10% glycerol, 0.1% Nonidet P-40, 5 mM DTT; 4 °C"}}, "note": "No constants are given. Whether binding was seen depends on the method and setting. For some assays here: Binding seen in cells or lysates may run through a third protein. Some binding calls cover weakened binding; strength is not graded here. Tags and fused reporters may be left off the sequences shown.", "data": [{"binder": "B1", "values": [{"measurement": "binding", "setting": "[1]", "value": "binds"}]}, {"binder": "B2", "values": [{"measurement": "binding", "setting": "[2]", "value": "binds"}]}]}
